Measurements reported in PubChem BioAssay AID1259254 (NCATS, 2017).

Aim: 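Finding genes that stop cells copying their DNA twice in one cycle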 (primary screen)
System: human HCT116 colorectal cancer cells
Knock-down reagent: single siRNA against human genes
Timing: 3 days
Measured: 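Nuclei stained with Hoechst and imaged; cell-cycle phase assigned by DNA content; G2 share scaled per plate, non-targeting siRNA 0%, GMNN siRNA 100%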
Direction: G2 robust z-score and G2 cells, % of GMNN control: higher = more G2 cells, more excess DNA replication
Call rule: 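An siRNA counts as active if its G2 robust z-score lies at least 5 MADs above the screen median; here such calls match roughly 38% of GMNN control or more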
The whole screen tested about 59,000 reagents; this is an unselected part. In the full data, about 1,550 (2.6%) are marked active. 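G2 share is only a proxy for re-replication; each gene was hit by three separate siRNAs, and active genes were retested.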 A number with no mark means an inactive call. The numbers tell different reagents against one gene apart. Further read-outs or replicates are left out here. Not stated in the record: the amount of reagent.

gene	reagent	G2 robust z-score	G2 cells, % of GMNN control
PIP4K2A	1	-0.722	-2.11
PIP4K2A	2	-1.18	-5.3
PIP4K2A	3	-0.939	-3.64
ETFRF1	1	-0.969	-3.85
ETFRF1	2	3.69	28.9
ETFRF1	3	-0.361	0.431
RBMXL2	1	-1	-4.09
RBMXL2	2	-0.63	-1.46
RBMXL2	3	3.8	29.7
DUSP8	1	0.386	5.69
DUSP8	2	-0.959	-3.78
DUSP8	3	-1.17	-5.29
IRGM	1	-0.294	0.901
IRGM	2	-0.305	0.825
IRGM	3	0.756	8.29
DNAJB14	1	0.738	8.16
DNAJB14	2	-0.982	-3.94
DNAJB14	3	0.935	9.54
METTL22	1	-0.923	-3.52
METTL22	2	-0.318	0.728
METTL22	3	-0.0151	2.86
CAMKV	1	0.813	8.69
CAMKV	2	-0.0164	2.85
CAMKV	3	1.58	14.1
ZNF569	1	2.27	18.9
ZNF569	2	-0.614	-1.35
ZNF569	3	0.179	4.23
CFAP36	1	2.98	23.9
CFAP36	2	-0.259	1.15
CFAP36	3	-0.0614	2.54

Not a retest: an excerpt of the list.
gene	reagent	G2 robust z-score	G2 cells, % of GMNN control
ZNF569	2	-0.614	-1.35
ZNF569	3	0.179	4.23
CFAP36	1	2.98	23.9
